These are yes or no findings as the source states them, for the method shown. Some entries that bind do so weakly or less than the wild type.
Target: recombinant human VEGF 165 (human) (UniProt P15692)
Experiment: competition ELISA, VEGFR-2 on coated VEGF 165

Amino acid sequences for entries named in this document (tags omitted). A change or cut given only in a name is not applied to a line headed by its entry. Chains listed by the source or under a name are the forms on record and can include a tag or linker.
recombinant human VEGF 165 (P15692, form named): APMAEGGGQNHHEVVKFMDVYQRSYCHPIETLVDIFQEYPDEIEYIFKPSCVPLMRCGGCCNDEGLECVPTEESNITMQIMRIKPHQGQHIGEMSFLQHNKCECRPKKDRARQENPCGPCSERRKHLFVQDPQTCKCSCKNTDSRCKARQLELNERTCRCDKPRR

B1: aflibercept peptide (positive control) (protein)
chain: SDTGRPFVEMYSEIPEIIHMTEGRELVIPCRVTSPNITVTLKKFPLDTLIPDGKRIIWDSRKGFIISNATYKEIGLLTCEATVNGHLYKTNYLTHRQTNTIIDVVLSPSHGIELSVGEKLVLNCTARTELNVGIDFNWEYPSSKHQHKKLVNRDLKTQSGSEMKKFLSTLTIDGVTRSDQGLYTCAASSGLMTKKNSTFVRVHEK
binding: binds

Source: patent publication US20200002439A1
